Binding data for one molecule are collected here from paper PMC5503561.

Amino acid sequences for entries named in this document (tags omitted).
UniProt P05412: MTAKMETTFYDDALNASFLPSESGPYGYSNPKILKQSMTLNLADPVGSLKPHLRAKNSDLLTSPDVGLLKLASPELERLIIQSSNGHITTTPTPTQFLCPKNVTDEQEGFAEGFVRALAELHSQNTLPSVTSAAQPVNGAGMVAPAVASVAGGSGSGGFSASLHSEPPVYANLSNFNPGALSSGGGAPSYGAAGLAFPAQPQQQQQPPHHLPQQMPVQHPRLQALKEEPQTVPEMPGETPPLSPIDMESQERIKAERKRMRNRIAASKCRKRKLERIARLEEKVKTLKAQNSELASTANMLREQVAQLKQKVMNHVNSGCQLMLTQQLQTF

For this test, the target named is HA-c-Jun (UniProt P05412). Briefly: co-IP; HEK293T cells transfected with flg-dvl, HA-c-Jun and hPar2, SLIGKV PAR2 activation (prominent after 5 h); cell nuclei; immunoprecipitation with anti-HA, Western blot with anti-flg. On the technique in general: Immunoblotting shows a protein as a band on a membrane.

Results are given in words; binding and its absence hold for the method and conditions named. Binding seen in cells or lysates may run through a third protein. Some results given as binding are weak or reduced against the parent protein; the word gives no strength.

B1: flg-DVL1 (Disheveled 1, wt) (protein, UniProt P51141 1-695)
chain: MAETKIIYHMDEEETPYLVKLPVAPERVTLADFKNVLSNRPVHAYKFFFKSMDQDFGVVKEEIFDDNAKLPCFNGRVVSWLVLAEGAHSDAGSQGTDSHTDLPPPLERTGGIGDSRPPSFHPNVASSRDGMDNETGTESMVSHRRERARRRNRDEAARTNGHPRGDRRRDLGLPPDSASTVLSSELESSSFIDSDEEDNTSRLSSSTEQSTSSRLVRKHKCRRRKQRLRQTDRASSFSSITDSTMSLNIITVTLNMERHHFLGISIVGQSNDRGDGGIYIGSIMKGGAVAADGRIEPGDMLLQVNDVNFENMSNDDAVRVLREIVSQTGPISLTVAKCWDPTPRSYFTIPRADPVRPIDPAAWLSHTAALTGALPRYGTSPCSSAITRTSSSSLTSSVPGAPQLEEAPLTVKSDMSAIVRVMQLPDSGLEIRDRMWLKITIANAVIGADVVDWLYTHVEGFKERREARKYASSMLKHGFLRHTVNKITFSEQCYYVFGDLCSNLASLNLNSGSSGASDQDTLAPLPHPSVPWPLGQGYPYQYPGPPPCFPPAYQDPGFSCGSGSAGSQQSEGSKSSGSTRSSHRTPGREERRATGAGGSGSESDHTVPSGSGSTGWWERPVSQLSRGSSPRSQASAVAPGLPPLHPLTKAYAVVGGPPGGPPVRELAAVPPELTGSRQSFQKAMGNPCEFFVDIM
As to B1, the binding entry is on record as “binds”.
